# Data reported in EP2078752A2.
# Sequences of proteins named here, by UniProt entry; tags and fusion partners are left off. A change or cut given only in a name is not applied to a line headed by its entry. Residues count along the entry.
# UniProt P37173, residues 23-567: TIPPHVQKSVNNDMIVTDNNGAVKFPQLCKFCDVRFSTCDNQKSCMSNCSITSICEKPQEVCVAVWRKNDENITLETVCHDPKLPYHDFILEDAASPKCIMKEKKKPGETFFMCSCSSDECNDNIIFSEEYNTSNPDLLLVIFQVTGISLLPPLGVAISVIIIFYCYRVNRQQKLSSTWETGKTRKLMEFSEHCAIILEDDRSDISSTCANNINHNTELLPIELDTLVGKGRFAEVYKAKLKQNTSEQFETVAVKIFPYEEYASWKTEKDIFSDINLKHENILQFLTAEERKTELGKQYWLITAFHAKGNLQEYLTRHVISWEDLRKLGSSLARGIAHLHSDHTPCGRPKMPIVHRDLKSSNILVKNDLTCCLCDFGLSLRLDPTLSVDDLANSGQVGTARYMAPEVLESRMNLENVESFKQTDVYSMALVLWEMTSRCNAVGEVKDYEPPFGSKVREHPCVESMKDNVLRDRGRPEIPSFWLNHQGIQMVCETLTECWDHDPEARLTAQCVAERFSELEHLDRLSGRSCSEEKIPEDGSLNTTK
# UniProt P36898: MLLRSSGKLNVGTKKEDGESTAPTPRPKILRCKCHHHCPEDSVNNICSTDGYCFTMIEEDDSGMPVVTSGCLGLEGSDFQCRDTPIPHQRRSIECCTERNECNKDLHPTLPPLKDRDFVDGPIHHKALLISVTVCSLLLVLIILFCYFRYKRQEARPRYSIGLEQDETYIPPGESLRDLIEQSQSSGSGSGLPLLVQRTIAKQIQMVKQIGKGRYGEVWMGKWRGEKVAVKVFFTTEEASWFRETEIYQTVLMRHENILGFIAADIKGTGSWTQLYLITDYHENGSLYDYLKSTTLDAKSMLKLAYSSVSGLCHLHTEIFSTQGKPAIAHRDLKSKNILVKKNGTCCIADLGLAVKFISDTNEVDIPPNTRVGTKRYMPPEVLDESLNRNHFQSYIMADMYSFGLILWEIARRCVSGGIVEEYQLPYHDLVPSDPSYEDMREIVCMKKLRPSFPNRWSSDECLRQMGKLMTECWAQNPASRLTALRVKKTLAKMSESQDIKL
# UniProt P08476, residues 311-426: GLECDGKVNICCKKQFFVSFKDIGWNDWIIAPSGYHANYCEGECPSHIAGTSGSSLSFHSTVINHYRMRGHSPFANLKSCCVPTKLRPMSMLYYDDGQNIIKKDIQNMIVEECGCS
# No constants are given. Whether binding was seen depends on the method and setting. For some assays here: In cells and extracts the contact can be indirect. Some entries that bind do so weakly or less than the wild type.
# Experiments:
# [1] = biological target: human TGF-β type II receptor (TβR-II) (human) (UniProt P37173); test: co-immunoprecipitation with DRL antiserum after 125I-TGF-β1 cross-linking, co-transfected COS-1 cells
# [2] = biological target: T1, endogenous ALK-4 (activin type I receptor) of PAE/Chim A porcine aortic endothelial cells (porcine) (UniProt D3K5N5); test: affinity cross-linking of 125I-activin A on PAE/Chim A cells then immunoprecipitation
# T1 sequence: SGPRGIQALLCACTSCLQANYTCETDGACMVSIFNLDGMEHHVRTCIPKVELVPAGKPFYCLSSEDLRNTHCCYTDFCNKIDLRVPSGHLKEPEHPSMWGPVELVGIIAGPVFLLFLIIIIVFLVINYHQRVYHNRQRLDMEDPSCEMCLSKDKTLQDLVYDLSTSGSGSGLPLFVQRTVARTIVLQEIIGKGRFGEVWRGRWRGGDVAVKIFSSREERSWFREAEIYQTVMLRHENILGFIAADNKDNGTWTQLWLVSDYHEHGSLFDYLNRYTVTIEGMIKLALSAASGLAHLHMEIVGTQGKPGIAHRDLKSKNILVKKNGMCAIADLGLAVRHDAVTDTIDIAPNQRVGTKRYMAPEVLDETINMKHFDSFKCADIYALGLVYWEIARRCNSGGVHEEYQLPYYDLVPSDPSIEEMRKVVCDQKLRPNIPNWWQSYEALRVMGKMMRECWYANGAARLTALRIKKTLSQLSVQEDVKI
binding [1],binding [2],Substance
binds,–,mouse ALK-6 (clone ME-6) (from UniProt P36898 14-502) (receptor)
–,binds,"recombinant human activin A, iodinated (^125I-activin A) (from UniProt P08476 311-426) (ligand)"
